Measured values from paper PMC4414571, “Peptides of Presenilin-1 Bind the Amyloid Precursor Protein Ectodomain and Offer a Novel and Specific Therapeutic Approach to Reduce ß-Amyloid in Alzheimer’s Disease” (PLoS ONE, 2015).

Target: T1, biotinylated scrambled P1 (SP1)
T1 sequence (peptide, biotin at the NH2-terminus): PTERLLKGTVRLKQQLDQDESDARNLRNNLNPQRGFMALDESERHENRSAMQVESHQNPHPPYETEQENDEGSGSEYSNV
Test: BLI; Octet RED96; biotinylated peptides loaded on streptavidin biosensors, quenched with biocytin; purified APPs (0-200 nM) or control IgG in solution; Kinetics Buffer (1X PBS, 0.002% Tween-20, 0.01% BSA), 30°C; global fit to a 1:1 model; KD = koff/kon; both purified

- binding: no binding (tested: 3.13–200 nM)
Substance: soluble APP (APPs), purified ectodomain of human APP 695 (domain or fragment)

No constants are given. Whether binding was seen depends on the method and setting.
